Measured values as given in publication PMC9138460.

Tested on: thrombin
Assay: liquid crystal droplet aggregation (optical microscopy)
Conditions: 5'-C18H37 phosphate on strand 2 (DNA-C18), adsorbed on 5CB droplets, PBS pH 7.4 (2 mM KH2PO4, 8 mM Na2HPO4, 136 mM NaCl, 2.6 mM KCl), commercial protein, folded or branched DNA

| Sequence | binding result (with thrombin aptamer 2 on droplets, 1, 5, 10 uM thrombin) | binding result (with thrombin aptamer 1 on droplets, 1, 5, 10 uM thrombin) |
| --- | --- | --- |
| AGTCCGTGGTAGGGCAGGTTGGGGTGACTTACACATCTACTTCACCA / TGGTGAAGTAGATGTGTA [Thrombin aptamer 1 hybridized to DNA-C18] | binds |  |
| GGTTGGTGTGGTTGGTACACATCTACTTCACCA / TGGTGAAGTAGATGTGTA [Thrombin aptamer 2 hybridized to DNA-C18] |  | binds |

Construct, isoform or probe ends are uncertain for at least one entry. At least one verdict rests on a figure or table, not on a statement of the authors.
